# Results: PubChem BioAssay AID493014 (National Center for Advancing Translational Sciences (NCATS), 2011)
# Some of the results follow. These are further read-outs of the screen, such as a control signal, another cell line or another target. No call is given for them. The list favours compounds with an active or inconclusive main result. Words in brackets tell the shape of the fitted curve; partial curves, single points and poor fits give uncertain potencies.
# Test: qHTS Assay to Find Inhibitors of Chronic Active B-Cell Receptor Signaling
# Conditions: ABC-DLBCL IkBa-CBG/CBR reporter, luminescence ratio (green luciferase fused to IkBa over red control in TMD8 lymphoma cells), 4 h
# Summary of the method: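 Doxycycline induced both beetle luciferases in TMD8 lymphoma cells; IKK-driven degradation limits the IkappaBalpha-fused green signal, while red luminescence normalises for cell number and nonspecific effects. Compounds tested up to 46 uM, 4 hrs.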
# [1] = measured here: CBR red luminescence, cell number
# [2] = measured here: IkBa-CBG green luminescence
Compound,AC50 [1],AC50 [2]
Cc1cc(=O)[nH]c(S/C=C/c2ccccc2)n1,"1.64 µM [falling, partial curve, poor fit]",
O=C(Nc1ccc2c(c1)CCCN2C(=O)c1cccs1)c1cccc(F)c1,"35.5 µM [falling, single point]",
CN(C)/C=C/C(=O)c1cnc(-c2cccc(Cl)c2)s1,"7.08 µM [falling, partial curve]",
Oc1c(Cl)cc(Cl)cc1CNc1ccccn1,"12.6 µM [rising, partial curve]","14.1 µM [falling, single point]"
O=C(CSc1nnc2ccccn12)Nc1cccc(-c2nc3ccccc3s2)c1,"6.51 µM [falling, partial curve]",
CCOc1ccccc1NC(=O)Cn1nnc(C(=O)NCc2cccs2)c1N,"1.41 µM [rising, full curve, poor fit]","5.01 µM [falling, partial curve]"
CCOC(=O)c1c(C)oc2c1c(C(c1cccnc1)N1CCOCC1)c(O)c1ccccc12 (stereo unspecified),"1.26 µM [rising, full curve, poor fit]",
O=C(Cc1cc(=O)[nH]c(=O)[nH]1)NCCN1CCOCC1,"29.1 µM [rising, partial curve, poor fit]",
COc1ccc(C(=O)NCC(=O)N/N=C/c2ccc([N+](=O)[O-])s2)cc1OC,"35.5 µM [falling, single point]",
O=C(/C=C/c1ccccc1Cl)Nc1ccc(S(=O)(=O)Nc2ncccn2)cc1,"11.2 µM [falling, partial curve, poor fit]",
COc1ccc(-c2cc(C(=O)N3CCN(C(c4ccccc4)c4ccccc4)CC3)no2)cc1OC,"6.31 µM [falling, partial curve, poor fit]",
O=C(Nc1cccc(C(=O)Nc2ccc(Cl)cn2)c1)c1ccccc1,"14.1 µM [falling, single point]",
O=C(CN1CCN(C(C(=O)Nc2ccc(F)cc2)c2ccccc2)CC1)NC1CC1 (stereo unspecified),"6.51 µM [rising, partial curve, poor fit]",
O=C(Nc1ccccc1F)c1ccc(Cn2cc(Br)cn2)cc1,"15.8 µM [falling, single point]",
Cc1cc(Br)ccc1SCC(=O)NCC(c1ccco1)N1CCCCC1 (stereo unspecified),"23.1 µM [falling, partial curve, poor fit]",
CC(=O)Oc1cccc(C(=O)Nc2cccc(C(=O)Nc3ccccc3C(=O)O)c2)c1,"12.6 µM [falling, partial curve]",
Cc1cc(Nc2ccccc2)nn1C(=O)c1ccc(Cl)cc1,"23.1 µM [rising, partial curve]",
COc1cccc(-c2cc(C(=O)NCC3CCCO3)on2)c1 (stereo unspecified),"14.1 µM [falling, partial curve]",
Cc1cc2cc(CN(Cc3cccs3)Cc3nnnn3CC3CCCO3)c(=O)[nH]c2cc1C (stereo unspecified),"16.4 µM [falling, partial curve, poor fit]",
Brc1ccccc1OCCOc1cccc2cccnc12,"0.651 µM [rising, full curve]",
COc1ccc(OC)c(C(c2nnnn2CC2CCCO2)N2CCN(C)CC2)c1 (stereo unspecified),"29.1 µM [rising, single point]",

Compound,AC50 [1],AC50 [2]
O=C(O)c1ccc(-c2ccco2)n1Cc1ccccc1,"29.1 µM [falling, single point]",
OC(CN1C2=NCCN2c2ccccc21)c1ccc2c(c1)OCO2 (stereo unspecified),"22.4 µM [falling, single point]",
c1ccc(CCc2ccccc2-c2nc(-c3ccccn3)no2)cc1,"25.9 µM [rising, single point]",
O=C(Cc1ccccc1)Nc1ccccc1N1CCCC1,"35.5 µM [rising, partial curve, poor fit]",
CCC(CC)NC(=O)Nc1ccccc1C(F)(F)F,"12.6 µM [rising, single point]",
O=C(NCCSc1ccccc1)c1ccc(Br)cc1,"29.1 µM [falling, single point]",
COc1cc(CC(=O)OCC(=O)c2ccc3c(c2)OCCO3)cc(OC)c1OC,"14.6 µM [rising, partial curve, poor fit]","9.2 µM [falling, partial curve]"
CCn1cc([N+](=O)[O-])c(C(=O)N2N=C(c3ccc(Cl)c(Cl)c3)CC2c2ccccc2O)n1 (stereo unspecified),"35.5 µM [falling, single point]",
Cc1ccc(-n2c(O)c(C=Nc3ccccc3-c3n[nH]c(=S)[nH]c3=O)c3ccccc3c2=O)cc1C,"35.5 µM [falling, single point]",
O=C(NCc1cccs1)c1cc(-c2cccc(Cl)c2)on1,"1 µM [falling, full curve, poor fit]",
Cc1noc(C)c1S(=O)(=O)N(C)C[C@H]1Oc2c(NC(=O)Nc3ccc(C(F)(F)F)cc3)cccc2C(=O)N([C@H](C)CO)C[C@@H]1C,"20.6 µM [falling, partial curve]",
O=C(Nc1nc2ccccc2[nH]1)c1cccc([N+](=O)[O-])c1,"2 µM [falling, full curve]",
CCN(CC)S(=O)(=O)c1cccc(NC2=NCC(C)S2)c1 (stereo unspecified),"2.82 µM [rising, full curve, poor fit]",
C/C(=N\NC(=O)c1ccc(NS(=O)(=O)c2cccs2)cc1)c1ccc(C(C)(C)C)cc1,"8.2 µM [falling, partial curve]",
Cc1ccc(S(=O)(=O)N2CCOCC2)cc1NC(=O)COC(=O)c1ccc(Br)cc1,"16.4 µM [falling, single point]",
Cc1cc(C)cc(NC(=O)N2c3ccccc3NC(=O)CC2C)c1 (stereo unspecified),"31.6 µM [falling, single point]",
COc1ccc(CCNC(=O)COC(=O)c2cc(OC)c(OC)cc2OC)cc1OC,"35.5 µM [falling, single point]",
C/C(=N\NC(=O)COc1ccc(C(C)(C)C)cc1)c1ccc(OC(F)F)cc1,"32.6 µM [rising, partial curve, poor fit]",
CCOC(=O)c1sc(-c2cccc([N+](=O)[O-])c2)cc1N,"10 µM [rising, partial curve]",
COc1cc(OC)cc(-c2c(-c3cccs3)c3cc(-c4ccc(CN5CCOCC5)cc4)ccc3n2C)c1,"29.1 µM [falling, single point]",
CCOC(=O)C(=O)C1=CN(Cc2ccccc2)C=C(C#N)C1,"35.5 µM [falling, single point]",

Compound,AC50 [1],AC50 [2]
CCOC(=O)Cc1csc(NC(=O)Nc2ccc(Cl)cc2)n1,"8.91 µM [falling, partial curve, poor fit]",
COc1ccc(/C=N/OC/C(O)=C(\C#N)c2nc3ccccc3[nH]2)cc1,"17.8 µM [falling, single point]",
COC(=O)C1=C(C)OC(N)=C(C#N)C1c1ccccc1F (stereo unspecified),"35.5 µM [falling, single point]",
Cc1ccc(-c2csc(N=C(N)N)n2)c(C)c1,,"11.2 µM [falling, single point]"
COc1ccc(-c2c(=O)n(OCc3nc4ccccc4[nH]3)c3ccccc3[n+]2[O-])cc1,"22.4 µM [falling, single point]",
O=C(CNC(=O)c1ccccc1)OCc1nc2ccccc2s1,"2.91 µM [rising, full curve]",
NS(=O)(=O)c1ccc(N=Nc2c(=O)[nH]n3c(=O)c4c([nH]c23)CCCC4)cc1,"14.1 µM [falling, partial curve, poor fit]",
Cc1ccc(C(=O)N/N=C/c2sc(=O)n(Cc3cccc(C(=O)O)c3)c2Cl)cc1,"7.08 µM [falling, partial curve]",
COC(=O)c1ccc(NC(=O)c2c(NCc3cccc(F)c3)sc3c2CCCC3)cc1,"7.94 µM [falling, partial curve]",
O=C(NC1CCCN(Cc2ccc(Cl)cc2)C1)C1CCC1 (stereo unspecified),"35.5 µM [rising, single point]",
N/C(Cc1cccs1)=N\OC(=O)COc1ccc(Cl)cc1Cl,"11.6 µM [rising, partial curve, poor fit]",
COC(=O)c1ccccc1NC(=O)CN(C)S(=O)(=O)c1ccc(OC)c(C)c1,"32.6 µM [falling, partial curve, poor fit]",
C=CCn1c(SCC(=O)N2CC(C)OC(C)C2)nnc1-c1ccncc1 (stereo unspecified),"20.6 µM [rising, single point]",
CC(C)OC(=O)CSc1nnc(-c2ccc(Cl)cc2Cl)o1,"2.31 µM [falling, partial curve, poor fit]",
Clc1ccc(Cc2nnc(-c3ccccc3Br)o2)cc1,"14.6 µM [rising, single point]",
C/C(=N\NC(=O)c1ccccc1)c1ccc(N2CCCCC2)cc1,"4.61 µM [falling, single point]",
COc1ccc(CCNC(=O)CSc2nc3ccccc3o2)cc1OC,"16.4 µM [rising, single point]",
COc1cc(C)c(C)cc1S(=O)(=O)N1CCCc2ccccc21,"3.55 µM [rising, full curve, poor fit]",
COc1ccc(NC(=O)c2oc3ccc(S(=O)(=O)N4CCOCC4)cc3c2C)c(OC)c1,"0.447 µM [falling, full curve, poor fit]",
Cc1ccc(-c2csc(NC(=O)C3CC(=O)N(Cc4ccco4)C3)n2)cc1 (stereo unspecified),"8.91 µM [falling, partial curve]",
C/C(=N\NC(=O)Cc1csc(N2CCOCC2)n1)c1ccc(Cl)c(Cl)c1,"3.98 µM [falling, partial curve, poor fit]",

# Laid out differently: entries from further up
Compound	AC50 [1]	AC50 [2]
COc1ccc(OC)c(C(c2nnnn2CC2CCCO2)N2CCN(C)CC2)c1 (stereo unspecified)	29.1 µM [rising, single point]	
O=C(O)c1ccc(-c2ccco2)n1Cc1ccccc1	29.1 µM [falling, single point]	
